{"source": "patent US20250144131A1", "about": "“POLYSACCHARIDE COMPOUND WITH A DEFINED MOLECULAR STRUCTURE FOR THE TREATMENT OF PULMONARY FIBROSIS” (SHENZHEN YANDAI INVESTMENT CO., LTD, priority 2023, published 2025)", "key": {"[1]": {"assay": "Spleen and thymus indices in H22-bearing mice", "assay_type": "in vivo, C57 mice", "settings": "cisplatin group"}, "[2]": {"assay": "Spleen and thymus indices in 4T1 breast tumor-bearing mice", "assay_type": "in vivo, BALB/c mice", "settings": "cisplatin 4 mg/kg"}}, "note": "Marks after values point to notes of the source that are not given here.", "data": [{"smiles": "N.N.[Cl][Pt][Cl]", "note": "[Cisplatin, cisplatin]", "values": [{"measurement": "Spleen index", "setting": "[1]", "value": "2.5 ± 0.1^+ mg/g"}, {"measurement": "Thymus index", "setting": "[1]", "value": "0.3 ± 0.1*^+ mg/g"}, {"measurement": "Spleen index", "setting": "[2]", "value": "4.2 ± 0.3 ^ mg/g"}, {"measurement": "Thymus index", "setting": "[2]", "value": "0.06 ± 0.04", "unit": "mg/g"}]}]}
